Results deposited as PubChem BioAssay AID1224827 (NIAID, 2016)
The whole screen tested about 3,800 reagents; below is an unselected part. About 2,200 of all reagents (57%) were called active. 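Active means a strong reporter change in either direction; calls are per siRNA, not per gene; qiagen siRNAs gave weaker effects.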 Reagents against one gene are numbered here. Not all columns of the deposit are shown.

Aim: 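Confirm genes whose knock-down changes LPS-driven TNF promoter activity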 (follow-up of hits)
Cells: RAW264.7 G9 mouse macrophage reporter clone
Knock-down reagent: single siRNA against mouse genes, 100 nM siRNA
Duration: siRNA for 2 days, then LPS about 16 h
Conditions: bacterial lipopolysaccharide (LPS), 10 ng/ml, cells fixed after overnight (about 16 h) stimulation
Detection: 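TNF promoter reporter red fluorescence in nuclei, background subtracted, normalised per plate and to non-targeting control siRNA, as z-scores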
Direction: TNF reporter z-score, mean: higher = stronger Tnf promoter reporter signal
Call rule: 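Active siRNA: replicate-mean z-score of 2 or more, or -2 or less; no calls for control wells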

no.	gene knocked down	reagent no.	TNF reporter z-score, mean	activity call
1	Slc10a4	1	-2.2	active
2	Slc10a4	2	-2.84	active
3	Slc10a4	3	-3.9	active
4	Slc10a4	4	2.69	active
5	Slc10a4	5	1.15	inactive
6	Slc10a4	6	-0.235	inactive
7	Ybey (ybeY metallopeptidase)	1	-2.26	active
8	Ybey (ybeY metallopeptidase)	2	-3.63	active
9	Ybey (ybeY metallopeptidase)	3	-4.52	active
10	Ybey (ybeY metallopeptidase)	4	7.24	active
11	Ybey (ybeY metallopeptidase)	5	6.05	active
12	Ybey (ybeY metallopeptidase)	6	3.2	active
13	Ch25h (cholesterol 25-hydroxylase)	1	-0.269	inactive
14	Ch25h (cholesterol 25-hydroxylase)	2	-3.35	active
15	Ch25h (cholesterol 25-hydroxylase)	3	-5.05	active
16	Ch25h (cholesterol 25-hydroxylase)	4	2.23	active
17	Ch25h (cholesterol 25-hydroxylase)	5	1.03	inactive
18	Ch25h (cholesterol 25-hydroxylase)	6	-1.32	inactive
19	Pofut1 (protein O-fucosyltransferase 1)	1	-0.0782	inactive
20	Pofut1 (protein O-fucosyltransferase 1)	2	-3.89	active
21	Pofut1 (protein O-fucosyltransferase 1)	3	-5.9	active
22	Pofut1 (protein O-fucosyltransferase 1)	4	1.57	inactive
23	Pofut1 (protein O-fucosyltransferase 1)	5	-2.22	active
24	Pofut1 (protein O-fucosyltransferase 1)	6	-4.79	active
25	Slc9a8	1	1.74	inactive
26	Slc9a8	2	-1.91	inactive
27	Slc9a8	3	-3.76	active
28	Slc9a8	4	2.78	active
29	Slc9a8	5	2.79	active
30	Slc9a8	6	-0.268	inactive
31	Tnfaip1 (tumor necrosis factor, alpha-induced protein 1 (endothelial))	1	-3.17	active
32	Tnfaip1 (tumor necrosis factor, alpha-induced protein 1 (endothelial))	2	-3.75	active
33	Tnfaip1 (tumor necrosis factor, alpha-induced protein 1 (endothelial))	3	-5.12	active
34	Tnfaip1 (tumor necrosis factor, alpha-induced protein 1 (endothelial))	4	3.06	active
35	Tnfaip1 (tumor necrosis factor, alpha-induced protein 1 (endothelial))	5	-0.862	inactive
36	Tnfaip1 (tumor necrosis factor, alpha-induced protein 1 (endothelial))	6	-1.69	inactive
37	Mrpl51 (mitochondrial ribosomal protein L51)	1	2.02	active
38	Mrpl51 (mitochondrial ribosomal protein L51)	2	-2.24	active
39	Mrpl51 (mitochondrial ribosomal protein L51)	3	-4.08	active
40	Mrpl51 (mitochondrial ribosomal protein L51)	4	4.7	active
41	Mrpl51 (mitochondrial ribosomal protein L51)	5	3.13	active
42	Mrpl51 (mitochondrial ribosomal protein L51)	6	0.785	inactive
